PubChem BioAssay AID652272 – Drosophila RNAi Screening Center – 2013

Purpose: 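Genes whose knock-down decreases or increases Hedgehog reporter output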 (primary screen)
Cells: Drosophila clone 8 (Cl8) cells
Reagents: long dsRNA against Drosophila genes
Measured: 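Plate reader light from a firefly reporter under a ptc promoter fragment that responds to Hedgehog, with Renilla light as transfection reference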
Reading the numbers: firefly Hh reporter signal: higher = more ptc reporter light; Renilla reference signal: higher = more Renilla control light
Rule for the call: 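Called a hit if the two-replicate mean z-score lies below -2 or above +3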
Calls: active = hit: reporter lowered or raised; inactive = not a hit
The deposit covers about 21,000 reagents; this is a random part of those that have a named target and a result. Over the whole deposit, 503 (2.4%) are marked active. 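Raw plate light values, not normalised; calls rest on replicate z-scores that were not deposited; hits include reporter decreases as well as increases.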 Unmarked entries are inactive. Not given: the amount of reagent, the time to read-out.

target,amplicon,"firefly Hh reporter signal, replicate 1","firefly Hh reporter signal, replicate 2","firefly Hh reporter signal, replicate 3","Renilla reference signal, replicate 1","Renilla reference signal, replicate 2"
cocoon,DRSC10916,1.28e5,,,5617,3747
IFT57 (Intraflagellar transport 57),DRSC00720,1.58e5,53781,,4032,5696
Grip84 (Gamma-tubulin ring protein 84),DRSC20248,81352,60615,,1573,1683
Hs2st (Heparan sulfate 2-O-sulfotransferase),DRSC03348,60705,59505,,3236,2612
Cpr66D (Cuticular protein 66D),DRSC10640,18440,11623,,3073,1257
Cpr66D (Cuticular protein 66D),DRSC10646,18071 (active),25017,,4692,2779
CG32107,DRSC09221,2.15e5,,,5096,
Erk7 (Extracellularly regulated kinase 7),DRSC18127,1.25e5,2.84e5,,3255,10400
Erk7 (Extracellularly regulated kinase 7),DRSC18227,93853,2.12e5,,2601,7990
CG5504,DRSC04701,90506,49928,,3964,1882
CG15522,DRSC15059,69707,94208,,2979,3649
obst-H (obstructor-H),DRSC10935,2.20e5,,,7920,6260
obst-H (obstructor-H),DRSC10940,1.90e5,,,7760,5280
CG32301,DRSC08613,82758,33060,,2505,2693
Prdm13 (PR/SET domain 13),DRSC09970,74077,66610,,8347,5558
Zw10 (Zeste-white 10),DRSC18793,93553,88812,,2677,3575
FIG4 (FIG4 phosphoinositide 5-phosphatase),DRSC00515,66392,66125,,2952,2384
CG7289,DRSC00697,1.12e5,1.19e5,,4211,4544
CG13806,DRSC08341,66134,42960,,1760,2243
Fad2,DRSC11165,18608 (active),12876,29943,2941,2999
CG9752,DRSC04562,65331,42748,,2605,1456
CG4701,DRSC01952,84173,54425,,2513,5689
CG42365,DRSC04266,1.02e5,55033,,2576,4598

An excerpt of the results above, for reference:
target,amplicon,"firefly Hh reporter signal, replicate 1","firefly Hh reporter signal, replicate 2","firefly Hh reporter signal, replicate 3","Renilla reference signal, replicate 1","Renilla reference signal, replicate 2"
CG13806,DRSC08341,66134,42960,,1760,2243
Fad2,DRSC11165,18608 (active),12876,29943,2941,2999
